Measurements from publication PMC9800903.
No constants are given. Whether binding was seen depends on the method and setting. Binding seen in cells or lysates may run through a third protein. Some entries that bind do so weakly or less than the wild type.

Chains of the proteins cited; added tags and fusions are not shown.
UniProt P47813: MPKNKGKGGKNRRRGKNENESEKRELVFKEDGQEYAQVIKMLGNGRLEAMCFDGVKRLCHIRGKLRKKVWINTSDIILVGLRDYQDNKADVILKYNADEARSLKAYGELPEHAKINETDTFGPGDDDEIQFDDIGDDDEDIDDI
UniProt O14980: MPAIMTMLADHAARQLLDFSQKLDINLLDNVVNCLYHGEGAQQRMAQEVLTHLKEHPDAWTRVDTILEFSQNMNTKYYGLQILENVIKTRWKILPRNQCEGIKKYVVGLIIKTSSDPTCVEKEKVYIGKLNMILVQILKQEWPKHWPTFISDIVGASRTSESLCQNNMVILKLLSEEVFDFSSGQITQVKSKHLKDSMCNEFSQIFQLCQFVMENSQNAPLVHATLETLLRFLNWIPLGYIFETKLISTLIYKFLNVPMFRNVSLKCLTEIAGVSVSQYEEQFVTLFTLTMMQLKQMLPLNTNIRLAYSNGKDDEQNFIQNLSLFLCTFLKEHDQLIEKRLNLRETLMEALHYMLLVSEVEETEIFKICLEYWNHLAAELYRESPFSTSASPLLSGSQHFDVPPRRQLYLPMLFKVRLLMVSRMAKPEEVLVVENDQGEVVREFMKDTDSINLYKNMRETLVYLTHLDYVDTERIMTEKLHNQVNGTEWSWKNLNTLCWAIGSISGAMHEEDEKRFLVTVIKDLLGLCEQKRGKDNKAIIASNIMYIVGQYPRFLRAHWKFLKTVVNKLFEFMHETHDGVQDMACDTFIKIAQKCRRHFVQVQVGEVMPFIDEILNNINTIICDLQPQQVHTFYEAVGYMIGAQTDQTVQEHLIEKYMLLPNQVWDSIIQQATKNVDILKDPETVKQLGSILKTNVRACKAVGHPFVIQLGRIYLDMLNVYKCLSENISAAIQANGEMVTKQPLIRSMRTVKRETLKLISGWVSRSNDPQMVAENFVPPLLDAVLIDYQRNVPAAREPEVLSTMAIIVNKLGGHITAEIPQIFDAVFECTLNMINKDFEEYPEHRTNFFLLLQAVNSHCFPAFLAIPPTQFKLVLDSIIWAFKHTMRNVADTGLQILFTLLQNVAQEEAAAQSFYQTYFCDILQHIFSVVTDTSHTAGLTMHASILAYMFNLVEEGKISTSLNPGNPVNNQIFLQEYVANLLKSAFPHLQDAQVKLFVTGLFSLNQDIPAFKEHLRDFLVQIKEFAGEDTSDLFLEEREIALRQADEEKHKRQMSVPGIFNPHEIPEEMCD

Target: Eukaryotic translation initiation factor 1A, X-linked (human (endogenous in HEC-1A)) (UniProt P47813)
Assay: co-IP; HEC-1A whole-cell lysates in RIPA lysis buffer with protease inhibitors; protein A or G magnetic beads prebound with anti-EIF1AX, anti-FLAG, anti-IPO13, anti-XPO1 or normal IgG control; western blotting

Exportin 1 (from UniProt O14980 1-1071)
binding: binds
